Results deposited as PubChem BioAssay AID1259293 (Sanger Institute, 2017)
Assay: 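Follow-up of kinase siRNAs for synthetic lethality with three anchor drugs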 (follow-up of hits). Cells: human NCI-H716 colorectal cancer cells. Reagent: single siRNA against human genes. Challenge: anchor drugs BYL719 at 1 µM, cetuximab at 5 µg/ml or trametinib at 10 nM, or DMSO vehicle alone. Measured: 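Replicate-averaged cell survival relative to non-targeting pool 2 control, plus a synergy score calculated separately for each of the three anchor drugs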. Scale: synergy score with BYL719 and synergy score with cetuximab and synergy score with trametinib: higher = stronger synthetic lethal effect with drug; viability, siRNA alone in vehicle: higher = more cells survive knock-down. Active means: 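An siRNA is active if its synergy score is above 0.10 for one or more of the three anchor drugs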. Meaning of the calls: active = synergy with at least one drug; inactive = no synergy with any drug.
Here is a random part of 160 reagents tested. 46 of all reagents (29%) count as active. 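The method behind the synergy score is not described; each call refers to one siRNA in a single cell line.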 The numbers tell different reagents against one gene apart. Viability is capped at 1. Not stated in the record: the amount of reagent, the time to read-out.

| gene | siRNA no. | synergy score with BYL719 | synergy score with cetuximab | synergy score with trametinib | viability, siRNA alone in vehicle (fraction of control) | activity call |
| --- | --- | --- | --- | --- | --- | --- |
| PAK1 | 1 | -0.266 | -0.0303 | 0.0126 | 0.878 | inactive |
| PAK1 | 2 | -0.179 | -0.109 | -0.14 | 1 | inactive |
| PAK1 | 3 | -0.179 | 0.0571 | 0.0995 | 1 | inactive |
| PAK1 | 4 | -0.0394 | 0.141 | 0.0616 | 0.704 | active |
| PLK1 | 1 | -0.0717 | -0.315 | -0.0566 | 0.399 | inactive |
| PLK1 | 2 | -0.108 | -0.145 | -0.165 | 0.236 | inactive |
| PLK1 | 3 | 0.0227 | 0.0809 | -0.101 | 0.356 | inactive |
| PLK1 | 4 | 0.00305 | 0.00815 | -0.0136 | 0.225 | inactive |
| CDK6 | 1 | 0.0275 | -0.0427 | 0.0875 | 0.693 | inactive |
| CDK6 | 2 | -0.197 | -0.21 | -0.105 | 0.432 | inactive |
| CDK6 | 3 | -0.179 | -0.109 | -0.107 | 1 | inactive |
| CDK6 | 4 | -0.215 | -0.324 | 0.0883 | 0.609 | inactive |
| PFKFB3 | 1 | -0.467 | -0.168 | -0.207 | 0.649 | inactive |
| PFKFB3 | 2 | -0.0368 | -0.169 | 0.0524 | 0.932 | inactive |
| PFKFB3 | 3 | -0.179 | -0.0191 | -0.194 | 1 | inactive |
| PFKFB3 | 4 | -0.0114 | 0.000997 | 0.01 | 0.791 | inactive |
| PIK3CA | 1 | 0.0775 | -0.248 | -0.104 | 0.78 | inactive |
| PIK3CA | 2 | -0.127 | -0.116 | 0.031 | 0.769 | inactive |
| PIK3CA | 3 | -0.165 | -0.191 | 0.284 | 0.856 | active |
| PIK3CA | 4 | -0.179 | -0.109 | -0.281 | 1 | inactive |
| SF3B1 | 1 | 0.0276 | 0.0464 | -0.0512 | 0.573 | inactive |
| SF3B1 | 2 | 0.115 | 0.209 | 0.0793 | 0.573 | active |
| SF3B1 | 3 | -0.0244 | -0.0735 | -0.336 | 1 | inactive |
| SF3B1 | 4 | 0.0466 | -0.00329 | -0.0715 | 0.371 | inactive |
